{"source": "paper PMC7819943", "about": "“Rice protein-binding microarrays: a tool to detect cis-acting elements near promoter regions in rice”", "note": "The other results are listed elsewhere or left out."}
{"target": "T1, OsSMF1 (Oryza sativa, UniProt Q6ZLB0 1-436)", "T1 sequence": "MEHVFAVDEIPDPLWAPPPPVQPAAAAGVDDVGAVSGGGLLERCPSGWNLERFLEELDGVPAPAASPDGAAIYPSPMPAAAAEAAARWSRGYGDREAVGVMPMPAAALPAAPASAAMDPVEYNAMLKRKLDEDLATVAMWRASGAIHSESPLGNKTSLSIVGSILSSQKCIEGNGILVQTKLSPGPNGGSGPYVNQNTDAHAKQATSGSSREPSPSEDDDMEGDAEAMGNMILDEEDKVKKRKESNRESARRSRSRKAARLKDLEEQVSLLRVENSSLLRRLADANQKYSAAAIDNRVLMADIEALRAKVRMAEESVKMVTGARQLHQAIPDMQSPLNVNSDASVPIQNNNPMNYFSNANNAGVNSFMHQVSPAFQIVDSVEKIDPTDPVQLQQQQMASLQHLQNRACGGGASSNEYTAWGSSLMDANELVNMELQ", "assay": "protein-binding microarray (RPBM); PBS, 2% BSA, 51.3 ng/ul salmon testes DNA, 50 uM zinc acetate, 200 nM TF, 25 C, 1 h; high values mean tight binding", "conditions": "protein: recombinant; tags: N-terminal polyhistidine and DsRed monomer fusion (pET32a); chain copies: 2; label: CyDye5-dUTP incorporated in the synthesized complementary strand; 3' TTTTT single-stranded linker to array surface; dsDNA, one strand shown", "how_it_was_run": "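In PBS with 2% BSA, salmon testes DNA and 50 µM zinc acetate, 200 nM protein was incubated on a custom Agilent array at 25 °C for 1 h and then washed off. The array had been made double-stranded by primer extension with Cy5-dUTP and blocked with 2% BSA. The proteins were transcription factors fused N-terminally to polyhistidine and DsRed, expressed in E. coli BL21-CodonPlus and purified on Ni–NTA. The binding signal is per-feature fluorescence intensity (arbitrary units) from an Axon 4000B scanner.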"}
{"sequence": "GTGCTCCACTCTAAGTCGCCGGAGCTCCGCGTCCTGCCCGCGGAGTCACCTAGTGCAG", "binding signal": "3790 fluorescence intensity (a.u.)"}
{"sequence": "AACGGCCGTTGAACTGACGTGGACTGGGCCCCACATTCCGCGGAGTCACCTAGTGCAG", "binding signal": "8830 fluorescence intensity (a.u.)"}
{"sequence": "TTGATAATTACTCTTACGTCCCTCACCCTATGCTCCTGTGCGGAGTCACCTAGTGCAG", "binding signal": "3440 fluorescence intensity (a.u.)"}
{"sequence": "GCTATATGTTAGCCACCGCCACCGGACGAGACGACGGATCCGGAGTCACCTAGTGCAG", "binding signal": "3160 fluorescence intensity (a.u.)"}
{"sequence": "CATAATCTGATGTGTTATTATTGATCTATGTAGAGGACACCGGAGTCACCTAGTGCAG", "binding signal": "4730 fluorescence intensity (a.u.)"}
{"sequence": "TGCCACTAGAACCCGTTCGTACAACGCATTCACTGCCACACGGAGTCACCTAGTGCAG", "binding signal": "3400 fluorescence intensity (a.u.)"}
{"sequence": "CACAGGAGGGTGGCGAGAGGGAGAGTGTGAGGAGCTGAGACGGAGTCACCTAGTGCAG", "binding signal": "3500 fluorescence intensity (a.u.)"}
{"sequence": "CCCAATCGCCACCGCGCCCGTACGTCTATACAGCGTGGCACGGAGTCACCTAGTGCAG", "binding signal": "4840 fluorescence intensity (a.u.)"}
{"sequence": "GGCGTGATGTGGGCGGCACGCACGCACGCACGCCCTCGCGCGGAGTCACCTAGTGCAG", "binding signal": "3840 fluorescence intensity (a.u.)"}
{"sequence": "CTAGAGAAGAAGAGAAGTGTGTCTGACAGTGGGCCCAACCCGGAGTCACCTAGTGCAG", "binding signal": "3210 fluorescence intensity (a.u.)"}
{"sequence": "ATTTCGCCAACCTCCCGGCTCCCGCTGCCAGTTTCGATTTCGGAGTCACCTAGTGCAG", "binding signal": "3420 fluorescence intensity (a.u.)"}
{"sequence": "ACAAACTTTGTATACGTGTATAAAATATTGATATATGTACCGGAGTCACCTAGTGCAG", "binding signal": "4410 fluorescence intensity (a.u.)"}
{"sequence": "TTTGAGAGCAATCGGCCACCCCAACTGCCTGCCAGTGAATCGGAGTCACCTAGTGCAG", "binding signal": "21500 fluorescence intensity (a.u.)"}
{"sequence": "GGCTCCCCTGCTGCTAATACTCTGCGTCACTGCCGCTTGACGGAGTCACCTAGTGCAG", "binding signal": "5590 fluorescence intensity (a.u.)"}
{"sequence": "TGAACTTAGACAACTCAGCGCCATATCAACTGACGCTGAACGGAGTCACCTAGTGCAG", "binding signal": "3450 fluorescence intensity (a.u.)"}
{"sequence": "ACCTGTGGCGGGTGTCGACGGTGCACCGCGTGGAGGAGCTCGGAGTCACCTAGTGCAG", "binding signal": "3140 fluorescence intensity (a.u.)"}
{"sequence": "AGGAATCGAGGACAAGCCGGCGGTGGGCAAGGAGACGTGGCGGAGTCACCTAGTGCAG", "binding signal": "4430 fluorescence intensity (a.u.)"}
{"sequence": "AAGCTGCTCGACGACGACTGAACTGAGTGTGACTGAGTCACGGAGTCACCTAGTGCAG", "binding signal": "4030 fluorescence intensity (a.u.)"}
{"sequence": "CTTGATTACCGTCATTAGTCAAAATCGCAGTTCACATCATCGGAGTCACCTAGTGCAG", "binding signal": "3440 fluorescence intensity (a.u.)"}
{"sequence": "AAAACTGGCCCGGTCTATCATGACGCACAGCCTGCTCAGCCGGAGTCACCTAGTGCAG", "binding signal": "5680 fluorescence intensity (a.u.)"}
{"sequence": "TTAGGCCGACGTCCTCCTCGCAGCCACGCGCTACGCCTCCCGGAGTCACCTAGTGCAG", "binding signal": "3730 fluorescence intensity (a.u.)"}
{"sequence": "TTTGGACACTTTCCATGTGCCATGACTCATGGCCAACTTTCGGAGTCACCTAGTGCAG", "binding signal": "9010 fluorescence intensity (a.u.)"}
{"sequence": "ATTAATGGCAAAAGTTCACAAACTTTGACTTTTGAAACGCCGGAGTCACCTAGTGCAG", "binding signal": "22800 fluorescence intensity (a.u.)"}
{"sequence": "TTCTACATTACACCTAGTGGCTTTGTCAGCAATCAGCATACGGAGTCACCTAGTGCAG", "binding signal": "3440 fluorescence intensity (a.u.)"}
{"sequence": "TGTCGTAGGCGGCGGCGGGAGGCGCCACGTGTCCGCCTCCCGGAGTCACCTAGTGCAG", "binding signal": "16700 fluorescence intensity (a.u.)"}
{"sequence": "GGAAATACATGACGTCATAACTGCTAACCACAATTCCCTCCGGAGTCACCTAGTGCAG", "binding signal": "10400 fluorescence intensity (a.u.)"}
{"sequence": "GATCGATCGAGCTGAGCTAACATCTCACATCACCATATATCGGAGTCACCTAGTGCAG", "binding signal": "3360 fluorescence intensity (a.u.)"}
{"sequence": "ATTACTACCAGCAGTATATCCTACTATCAGCGCACTGCACCGGAGTCACCTAGTGCAG", "binding signal": "3270 fluorescence intensity (a.u.)"}
{"sequence": "TTACGAGACGAATCTTTTAAGACTAATTGCTCCATGATTTCGGAGTCACCTAGTGCAG", "binding signal": "3280 fluorescence intensity (a.u.)"}
{"sequence": "TACCATGTCACTGACTTTGTTACCTGTCTACGATTTGCCACGGAGTCACCTAGTGCAG", "binding signal": "3180 fluorescence intensity (a.u.)"}
{"sequence": "CATTACTCACGCCTCTTTGCCGACATATGGCCACGCCCCTCGGAGTCACCTAGTGCAG", "binding signal": "3730 fluorescence intensity (a.u.)"}
{"sequence": "GAGAGAGAGAGAGAGTCCACGCATCCCGCGCGCCTCCTTTCGGAGTCACCTAGTGCAG", "binding signal": "4620 fluorescence intensity (a.u.)"}
{"sequence": "TTAGTGTCTAAAGATAGGGACTAAAGTTAAGTCACTGATGCGGAGTCACCTAGTGCAG", "binding signal": "5610 fluorescence intensity (a.u.)"}
{"sequence": "AGGTCCTCGTGGACATCGTCGTGTTGTCGGGCGCGTGTTCCGGAGTCACCTAGTGCAG", "binding signal": "32500 fluorescence intensity (a.u.)"}
{"sequence": "GAGAGAGGAGAAAGGGAGAGGAGAGGGTGATGACGTGGCCCGGAGTCACCTAGTGCAG", "binding signal": "27200 fluorescence intensity (a.u.)"}
{"sequence": "GGTTTTAACCCCGATTTCGTTCGACGTGGCGGCTGAGTCACGGAGTCACCTAGTGCAG", "binding signal": "10800 fluorescence intensity (a.u.)"}
{"sequence": "CTCCCCACCTCCGCCTCCGCCTCCGATCCGCCGCCGCCGTCGGAGTCACCTAGTGCAG", "binding signal": "3600 fluorescence intensity (a.u.)"}
{"sequence": "TCAAATATTGTAAGAGGATGATCTGTAAGTGATATGTATTCGGAGTCACCTAGTGCAG", "binding signal": "3440 fluorescence intensity (a.u.)"}
{"sequence": "CCGGTCGCAGCTGACGTACGCAGCAGTAGGTCGCCGTCACCGGAGTCACCTAGTGCAG", "binding signal": "7100 fluorescence intensity (a.u.)"}
{"sequence": "ATAAACCAACAGCGCGAGGCAAGGCGAAGACGAGAGAGTGCGGAGTCACCTAGTGCAG", "binding signal": "4000 fluorescence intensity (a.u.)"}
{"sequence": "CTTGTTGGGCCATGCCTGGGCTGTGAGTGCGGCACGTGGGCGGAGTCACCTAGTGCAG", "binding signal": "3360 fluorescence intensity (a.u.)"}
{"sequence": "AAACAGAGGGGAAGAGAGAGGATCGTCGTCGACGATGATGCGGAGTCACCTAGTGCAG", "binding signal": "3200 fluorescence intensity (a.u.)"}
{"sequence": "ATGCATGCGTGTGCAGAGTTTGCGTTTCTGACGTGATATACGGAGTCACCTAGTGCAG", "binding signal": "9440 fluorescence intensity (a.u.)"}
{"sequence": "AAGTATACAATTCATAAAATGTACTAGATTTGACCAACACCGGAGTCACCTAGTGCAG", "binding signal": "38100 fluorescence intensity (a.u.)"}
{"sequence": "TATTGTCTATTGCAGTGAGGATTGGCACGCTATATGTCATCGGAGTCACCTAGTGCAG", "binding signal": "15500 fluorescence intensity (a.u.)"}
{"sequence": "ATAGCGCCGGCGATACTGACTCCACGTAGGTTTGAGGAGTCGGAGTCACCTAGTGCAG", "binding signal": "7280 fluorescence intensity (a.u.)"}
{"sequence": "AGCCAGCTCGTGACTAGTACACGCGGTGGCGAAGACAAAACGGAGTCACCTAGTGCAG", "binding signal": "3820 fluorescence intensity (a.u.)"}
{"sequence": "ACTACTTTATTTACTGCGTCACATAAAGACCAAGCGCCACCGGAGTCACCTAGTGCAG", "binding signal": "3280 fluorescence intensity (a.u.)"}
{"sequence": "CAACTCATGGATCTCGCCCACTGCTGATTTTGCATTCGGTCGGAGTCACCTAGTGCAG", "binding signal": "3240 fluorescence intensity (a.u.)"}
{"sequence": "TCCTCTTCACGGCCCAAGATCTGCTGCTGCTGCGTGTCCCCGGAGTCACCTAGTGCAG", "binding signal": "3670 fluorescence intensity (a.u.)"}
{"sequence": "TGGCGCACATGACACGCTGGGCCGACGACGTTGACCCCAGCGGAGTCACCTAGTGCAG", "binding signal": "3600 fluorescence intensity (a.u.)"}
{"sequence": "GGCTGGAAATCCACTAGTAATAGACCACCCCAAGTCCATCCGGAGTCACCTAGTGCAG", "binding signal": "37400 fluorescence intensity (a.u.)"}
{"sequence": "TACGAGCCGCCGCTGATGGCCGTCATCATGTCGCCCAGGTCGGAGTCACCTAGTGCAG", "binding signal": "3500 fluorescence intensity (a.u.)"}
{"sequence": "GGATTTGCTAGGGATTACCTCCTTGATGACACGAATAGCTCGGAGTCACCTAGTGCAG", "binding signal": "4140 fluorescence intensity (a.u.)"}
